Library screen at single concentrations

Mtb cholesterol medium: 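Whole-cell growth test on Mycobacterium tuberculosis, read after 4 days in a medium based on cholesterol and the lipid DPPC; the read-out is not stated. Compounds at 50 µM. Direction is inferred from retests: higher values go with more growth inhibition. Size under these conditions: about 69,000 compounds, about 370 of them at 50% or above in at least one test.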
Mtb glucose medium: 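Phenotypic screen: M. tuberculosis growth, glucose 7H9 medium, 3 days; the read-out is not stated. Compounds at 50 µM. Higher reads as more growth inhibition (inferred: compounds with an IC50 in retests scored well above the rest). Of about 69,000 compounds tested this way, about 760 (1.1%) reached 50% or more in at least one test.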

Values are the deposited “Percent Effect”, in %.
The controls that fix the scale are not given in the record; negative values are as filed.
Compounds were drawn at random from those tested, without regard to their results.
Two or more numbers in one place are separate tests of the same structure; such repeats can differ widely.

SMILES,Mtb cholesterol medium,Mtb glucose medium
O=C(NCCN1CCCC1)c1cc2c(s1)CCN2c1ncccn1,2.031,9.852
O=C(c1cccc(Cl)c1)C1CCCN(c2nnc(C3CCC3)o2)C1 (stereo not given),4.444,23.78
CC(C)c1nc(C(=O)N2CCc3ccccc3C2C(=O)O)cs1 (stereo not given),-9.169,-24.19
[H][C@@]12CCN(C(=O)c3cccn3C)CC[C@@]1([H])N(CCN(C)C)CCO2,-16.89,-43.97
O=C(c1ccc(Cl)cc1-n1cnnn1)N1CCC2(CC1)OCCO2,7.542,25.71
CC(C(=O)N(C)C)N1CCc2onc(-c3cccc(F)c3)c2C1 (stereo not given),-17.84,-37.4 & -20.19
Cn1cc(CCC(=O)NCc2ccccc2OC(C)(C)C)cn1,-10.62,-10.73 & -1.044
CNc1cc(N2CCC(O)(CNC(=O)c3ccc(C)nc3)C2)ncn1 (stereo not given),6.107,8.724
CC(C)C(C(N)=O)c1cccc(Cl)c1 (stereo not given),3.631,-1.093 & 6.025
[H][C@]12CC[C@@]3(N=C(C)N(CC(C)C)C3=O)[C@@]1([H])CN(S(=O)(=O)C1CC1)C2,-21.93,-24.32
CC1CCN(C(=O)NCCc2cc(F)ccc2F)C1 (stereo not given),31.79,38.13
O=C(CN1CCCC1Cn1cccn1)NCCOc1cccc(F)c1 (stereo not given),16.96,29.37
Cc1nc2c(C)cccc2cc1C(=O)N1CCC2(CC1)NCCNC2=O,8.397,3.84
O=C(O)C(F)(F)F.[H][C@]12CCC(=O)N(c3cccnc3)[C@@]1([H])CCN2C(=O)c1cnoc1C,15.62 & -20.08,-20.31
O=C(O)C(F)(F)F.O=C(O)C(F)(F)F.[H][C@]12CCC[C@@]1(COc1cccnc1)CN(CC1CCOCC1)C2,0.06214,23.88
COCC1c2c(cnn2C)CCN1Cc1ccc(F)cc1.O=C(O)C(F)(F)F.O=C(O)C(F)(F)F (stereo not given),-8.878 & -13.94,-0.7039
[H][C@@]12CCCO[C@]1([H])[C@H](OCC1CCOCC1)CN2C(=O)c1ccc(C)o1,-17.99,15.1
Cn1cc(CN2CCCN(C(=O)c3ccccn3)CC2)cn1,-16.94,-21.43
CCc1c(C)nc(C)nc1N1C[C@@H](CN(C)C)[C@@H](CO)C1,-3.294 & 3.352,26.25
CN1CCCC2(CCN(C(=O)Cn3ncc4ccccc4c3=O)C2)C1=O (stereo not given),-18.67,-23.49
CN(Cc1ccco1)C(=O)NC1CCCN(c2ncccn2)C1 (stereo not given),-21.6,-27.2
Cc1ccc(C(C)N(C)CCS(=O)(=O)CCC(N)=O)cc1 (stereo not given),0.6981,12.19
Cc1cnc(CN(C)C2CCN(Cc3nnc(C4CC4)o3)C2)o1 (stereo not given),-17.2,-23.04
Cc1cc(CN(C)C(=O)C(c2ccccc2F)N(C)C)ccn1 (stereo not given),27.98,10.8
Cc1cc(-c2cc(N)c(=O)n(CC(=O)NC3CCCC3)n2)c(C)o1,7.513 & -10.26,-4.123
O=C(NCCC(O)c1cccs1)c1ccco1 (stereo not given),2.911,4.343
CCN(CCC#N)Cn1ncc2cn(-c3ccccc3)nc2c1=O,-15.5,-12.51
CCN(CC)C(=O)C1CCCN(c2ncnc3oc(C)nc23)C1 (stereo not given),-2.182,3.167
CN(CC(N)=O)S(=O)(=O)c1ccc(F)cc1Cl,-24.79,-1.111
O=C(C1CC1)N1CCN(C(=O)C2CC(=O)N(c3ccccc3Br)C2)CC1 (stereo not given),-23.83,-36.04
CC(c1cccc(S(N)(=O)=O)c1)N(C)CCCOc1ccccc1 (stereo not given),-0.4787,4.56
COC(=O)c1ccc(C(=O)NCc2nn(C)c3c2COCC3)cc1,0.02617,10.59
O=C(O)C(F)(F)F.[H][C@@]12COC[C@@H](C(=O)N3CCC(F)CC3)[C@]1([H])CN(C1CCCC1)C2,2.326,-12.88
CC(C)c1nc(CSc2nnc(Cn3cncn3)o2)cs1,5.071,16.93
CCN(Cc1cccnc1)CC1(C)Cc2c(N)nc(N)nc2O1 (stereo not given),-4.325 & 9.251,1.836
Cl.Cl.c1cnc(NCc2cncc3c2CCN(Cc2ccsc2)C3)nc1,-21.3,-8.845
COC(=O)N1CCc2ccccc2C1C(=O)NCc1nc(C)no1 (stereo not given),1.93,5.511 & -1.25
COCc1ccc(C(=O)N2CCCN(Cc3ccc(F)cc3)CC2)s1,-3.687,-45.6
Cc1nn(C)c(N(C)C)c1CNC1CCc2c(Cl)cccc21.Cl (stereo not given),17.32,19.37
CCS(=O)(=O)CC(=O)NC(C)c1ccc(F)cc1F (stereo not given),-3.452,12.83
CN(C)CCN1CCOCC2(C1)CN(Cc1ccco1)CCO2.O=C(O)C(F)(F)F.O=C(O)C(F)(F)F.O=C(O)C(F)(F)F (stereo not given),-11.15 & -7.625,-10.57
O=C(NC1CCc2cc(Cl)ccc21)C1CCN(C(=O)C2CC2)CC1 (stereo not given),-8.045,29.28
COc1ccc(S(=O)(=O)N[C@H]2CN(C(C)=O)C[C@@H]2C(C)C)cc1F,21.06,31.83 & -1.655
Cn1ccc(CN2CCN(CC3CC3)CC2)cc1=O,-18.78,-10.99
c1ccc(NCc2ccsc2)c(Cn2cncn2)c1,4.004,24.11
Cc1nc(CCNC(=O)NCc2ccc(N(C)C)nc2)cs1,-2.881,6.34
CCN(Cc1ccncc1)C1CCCN(Cc2ccc(F)cc2Cl)C1 (stereo not given),0.507,21.55
O=C(O)C(F)(F)F.O=C1COC2(CCN(C(=O)c3ccco3)CC2)CN1Cc1cccnc1,3.546,-27.86
CNC(=O)C1CCCCN1C(=O)Cc1csc(-c2ccc(C)o2)n1 (stereo not given),-8.429,4.431 & 2.313
[H][C@]12CCC(=O)N(c3ccccc3)[C@@]1([H])CCN2C(=O)c1cccn1C,-22.73,-26.84 & -5.505
CC(c1nccs1)N(C)S(=O)(=O)NCc1ccccc1 (stereo not given),8.624,11.69
Fc1ccc(CN2CCOC[C@H](Oc3cccnc3)C2)cc1,-28.73,2.612 & -18.11
COc1ccc(-n2nc(C(C)C)nc2Cn2cncn2)cc1,-11.82,4.224
O=C(O)C(F)(F)F.[H][C@@]12CN(C(=O)C3CCOC3)C[C@]1([H])C(=O)N(Cc1ccncc1)C2 (stereo not given in full),-3.135,-2.256
CCn1cc(CN2CCCN(C(=O)CCc3ccncc3)CC2)cn1,-12.04,12.37
COCC1COCCC12CCN(C(=O)COc1ccccc1)CC2 (stereo not given),-13.9,-2.155
CC(C)CCc1cc(C(=O)O)nc2[nH]c(=O)[nH]c(=O)c12,-3.007,29.06
COc1ncccc1CNC(=O)c1cnccn1,6.576,-16.76
O=C(NCCSC1CCCC1)c1cc(Cl)ccn1,7.7,-22.46
COCCN1CCOCC12CCN(C(=O)c1c[nH]c3ccccc13)CC2,8.32,10.96
NC(=O)c1cnc(NC2CCN(c3ccccn3)CC2)c(Cl)c1,-1.41,27.15 & 8.579
Cc1cnn(CC(C)NCc2ccncc2)c1 (stereo not given),-29.17,1.421
CCn1cc(S(=O)(=O)N2CCC(C)Sc3ccccc32)cn1 (stereo not given),-23.02,4.47
Cc1noc(NC(=O)CCNC(=O)c2ccc(Br)cc2)n1,-22.71,-28.45
CC(C)C(=O)N1Cc2ccccc2CC2(CCCCN2C)C1 (stereo not given),24.49,1.48
CC(C)(C(=O)N[C@@H]1CCC[C@@H](O)[C@@H]1O)c1cccc(F)c1,-2.679 & -4.809,2.94
CCOCC1CCN(C(=O)C(c2ccc(F)cc2)N(C)C)CC1 (stereo not given),-30.67,-39.84
CC(C)N(C)Cc1n[nH]c2c1CCN(C(=O)c1ccc[nH]1)C2.O=C(O)C(F)(F)F,-4.921,-11.85
NC(=O)C1CCCN1C(=O)c1cc(C2CC2)nc2ccc(F)cc12 (stereo not given),-11.54,-4.77
CCn1nc(C)cc1NC(=O)CCn1nc(C)c2ccccc21,-5.057,3.507
CC(CNC(=O)c1cccnc1)Oc1ccc(F)cc1 (stereo not given),-4.831,35.67
Cc1cc(C)n(CCN2CCN(C(=O)c3ccc(Br)o3)CC2)n1,3.152,4.793 & 13.62
CCc1cc(=O)[nH]c(-c2ccc(NC(C)COC)nc2)n1 (stereo not given),-3.95,24.17
COCCN(Cc1ccoc1)S(=O)(=O)c1cccc(C(F)(F)F)c1,21.55,9.903
CCOc1cc(CN(C)CC(C)(C)O)ccc1OC(F)F,-33.27,-32.67
OC1CCN(c2ccnc(NCCc3ccccc3Cl)n2)CC1,22.55,-35.76
Cc1cc(=O)[nH]c(-c2cccc(CN3CCCN4CCCC4C3)c2)n1 (stereo not given),-10.07,10.95
CCCc1nc(N2CCCC(C)C2)c2c(n1)c(C)nn2CC (stereo not given),5.667,49.24 & 4.514
NC(=O)c1csc(C(=O)N2CCCCC2Cn2cccn2)c1 (stereo not given),-8.481,-1.611
CN(Cc1cnn(C)c1)C(=O)NC1CCCC1,-6.585,-6.963
O=C(c1cccs1)N1CCc2c(nc(N3CCCC3)[nH]c2=O)C1,-5.192,-5.838
Cc1cc(N2CCOCC2)nc(N(C)CCO)c1C#N,15.13,-17.46 & 0.6595
Cn1cccc1CN1CCc2c(nc(-c3ccccn3)[nH]c2=O)C1,7.78,17.42

The first 5 entries again:

| SMILES | Mtb cholesterol medium | Mtb glucose medium |
|---|---|---|
| `O=C(NCCN1CCCC1)c1cc2c(s1)CCN2c1ncccn1` | 2.031 | 9.852 |
| `O=C(c1cccc(Cl)c1)C1CCCN(c2nnc(C3CCC3)o2)C1` (stereo not given) | 4.444 | 23.78 |
| `CC(C)c1nc(C(=O)N2CCc3ccccc3C2C(=O)O)cs1` (stereo not given) | -9.169 | -24.19 |
| `[H][C@@]12CCN(C(=O)c3cccn3C)CC[C@@]1([H])N(CCN(C)C)CCO2` | -16.89 | -43.97 |
| `O=C(c1ccc(Cl)cc1-n1cnnn1)N1CCC2(CC1)OCCO2` | 7.542 | 25.71 |

Data taken from ChEMBL document CHEMBL3988442, “University of Dundee, Small-Polar-MMV Screening Library” (2021).